Assay results from the supplement of paper PMC10077471.
Whole data set: some 1,900 compounds, median “excess over highest single agent (ExcessHSA) synergy score, 6x6 matrix” near -83, cut for the lowest 2% near -370. This is one part of the list.

These compounds were tested on NCI-H446 (assay: excess over highest single agent (ExcessHSA) synergy score, 6x6 matrix; higher = less synergy (more negative = stronger synergy)). Details: 72 h; CellTiter-Glo viability.

Compound | excess over highest single agent
Cc1ccccc1C(C(=O)NC1CCCCC1)N(C(=O)CNc1ccc(C#N)cc1)c1cccc(F)c1 (stereo not drawn) + Cc1sc2c(c1C)C(c1ccc(Cl)cc1)=N[C@@H](CC(=O)OC(C)(C)C)c1nnc(C)n1-2 [NCGC00250412-19] | -209
C=CC1=C(C(=O)O)N2C(=O)[C@@H](NC(=O)/C(=N\O)c3csc(N)n3)[C@H]2SC1 + Cc1sc2c(c1C)C(c1ccc(Cl)cc1)=N[C@@H](CC(=O)OC(C)(C)C)c1nnc(C)n1-2 [NCGC00250412-19] | 3.02
OCc1ccccc1O[C@@H]1O[C@H](CO)[C@@H](O)[C@H](O)[C@H]1O + Cc1sc2c(c1C)C(c1ccc(Cl)cc1)=N[C@@H](CC(=O)OC(C)(C)C)c1nnc(C)n1-2 [NCGC00250412-19] | -65.5
O=C1NC(O)CCN1[C@@H]1O[C@H](CO)[C@@H](O)[C@H]1O (stereo partly drawn) + Cc1sc2c(c1C)C(c1ccc(Cl)cc1)=N[C@@H](CC(=O)OC(C)(C)C)c1nnc(C)n1-2 [NCGC00250412-19] | -122
CN1[C@@H]2CC(O)C[C@H]1[C@@H]1O[C@@H]12 (stereo partly drawn) + Cc1sc2c(c1C)C(c1ccc(Cl)cc1)=N[C@@H](CC(=O)OC(C)(C)C)c1nnc(C)n1-2 [NCGC00250412-19] | -7.73
C=C1CC[C@@H]2[C@](C)(CO)[C@H](O)CC[C@@]2(C)[C@@H]1C/C=C1/C(=O)OC[C@H]1O + Cc1sc2c(c1C)C(c1ccc(Cl)cc1)=N[C@@H](CC(=O)OC(C)(C)C)c1nnc(C)n1-2 [NCGC00250412-19] | -250
Cc1cn([C@H]2C=C[C@@H](CO)O2)c(=O)[nH]c1=O + Cc1sc2c(c1C)C(c1ccc(Cl)cc1)=N[C@@H](CC(=O)OC(C)(C)C)c1nnc(C)n1-2 [NCGC00250412-19] | -148
CC/C(=C(\c1ccc(O)cc1)c1ccc(OCCNC)cc1)c1ccccc1 + Cc1sc2c(c1C)C(c1ccc(Cl)cc1)=N[C@@H](CC(=O)OC(C)(C)C)c1nnc(C)n1-2 [NCGC00250412-19] | 218
CNC(=O)c1cc(Oc2ccc(NC(=O)Nc3ccc(Cl)c(C(F)(F)F)c3)cc2)ccn1 + Cc1sc2c(c1C)C(c1ccc(Cl)cc1)=N[C@@H](CC(=O)OC(C)(C)C)c1nnc(C)n1-2 [NCGC00250412-19] | -34.1
COc1cccc2c1C(=O)c1c(O)c3c(c(O)c1C2=O)C[C@@](O)(C(C)=O)C[C@@H]3O[C@H]1C[C@H](N)[C@H](O)[C@H](C)O1 + Cc1sc2c(c1C)C(c1ccc(Cl)cc1)=N[C@@H](CC(=O)OC(C)(C)C)c1nnc(C)n1-2 [NCGC00250412-19] | -304
C=CC(=O)Nc1cc2c(Nc3ccc(F)c(Cl)c3)ncnc2cc1C#CC(C)(C)N1CCN(C)CC1 + Cc1sc2c(c1C)C(c1ccc(Cl)cc1)=N[C@@H](CC(=O)OC(C)(C)C)c1nnc(C)n1-2 [NCGC00250412-19] | -196
CNC1CCC(N(Cc2cccc(-c3ccncc3)c2)C(=O)c2sc3c(F)ccc(F)c3c2Cl)CC1 (stereo not drawn) + Cc1sc2c(c1C)C(c1ccc(Cl)cc1)=N[C@@H](CC(=O)OC(C)(C)C)c1nnc(C)n1-2 [NCGC00250412-19] | -46.3
O=c1oc2c(O)c(O)cc3c(=O)oc4c(O)c(O)cc1c4c23 + Cc1sc2c(c1C)C(c1ccc(Cl)cc1)=N[C@@H](CC(=O)OC(C)(C)C)c1nnc(C)n1-2 [NCGC00250412-19] | -74.5
CC(=O)CC(c1ccccc1)c1c(O)c2ccccc2oc1=O (stereo not drawn) + Cc1sc2c(c1C)C(c1ccc(Cl)cc1)=N[C@@H](CC(=O)OC(C)(C)C)c1nnc(C)n1-2 [NCGC00250412-19] | -82.9
CC(=O)OCC(=O)[C@@]12OC(C)(C)O[C@@H]1C[C@H]1[C@@H]3C[C@H](F)C4=CC(=O)C=C[C@]4(C)[C@@]3(F)[C@@H](O)C[C@@]12C + Cc1sc2c(c1C)C(c1ccc(Cl)cc1)=N[C@@H](CC(=O)OC(C)(C)C)c1nnc(C)n1-2 [NCGC00250412-19] | -58.6
O=S(=O)(CC1CS1)c1ccc(Oc2ccccc2)cc1 (stereo not drawn) + Cc1sc2c(c1C)C(c1ccc(Cl)cc1)=N[C@@H](CC(=O)OC(C)(C)C)c1nnc(C)n1-2 [NCGC00250412-19] | -165
CCC(C)(Oc1ccc(C2(c3ccc(OC(C)(CC)C(=O)O)cc3)CCCCC2)cc1)C(=O)O (stereo not drawn) + Cc1sc2c(c1C)C(c1ccc(Cl)cc1)=N[C@@H](CC(=O)OC(C)(C)C)c1nnc(C)n1-2 [NCGC00250412-19] | 21.3
COc1cc2nccc(Oc3ccc(NC(=O)NC4CC4)c(Cl)c3)c2cc1C(N)=O + Cc1sc2c(c1C)C(c1ccc(Cl)cc1)=N[C@@H](CC(=O)OC(C)(C)C)c1nnc(C)n1-2 [NCGC00250412-19] | -115
c1nc2c(NC3CCCCC3)nc(Nc3ccc(N4CCOCC4)cc3)nc2[nH]1 + Cc1sc2c(c1C)C(c1ccc(Cl)cc1)=N[C@@H](CC(=O)OC(C)(C)C)c1nnc(C)n1-2 [NCGC00250412-19] | -52.8

Compound | excess over highest single agent
Cc1cnc(-c2cc(N3CCN(C(=O)CCS(C)(=O)=O)CC3)ncc2Cl)c(C)c1 + Cc1sc2c(c1C)C(c1ccc(Cl)cc1)=N[C@@H](CC(=O)OC(C)(C)C)c1nnc(C)n1-2 [NCGC00250412-19] | 125
CC[C@@]1(O)C[C@H](O[C@H]2C[C@H](N(C)C)[C@H](O[C@H]3C[C@H](O)[C@H](O[C@H]4CCC(=O)[C@H](C)O4)[C@H](C)O3)[C@H](C)O2)c2c(cc3c(c2O)C(=O)c2c(O)cccc2C3=O)[C@H]1C(=O)OC + Cc1sc2c(c1C)C(c1ccc(Cl)cc1)=N[C@@H](CC(=O)OC(C)(C)C)c1nnc(C)n1-2 [NCGC00250412-19] | -283
Cc1c(CN2CCN(C(=O)[C@H](C)O)CC2)sc2c(N3CCOCC3)nc(-c3cnc(N)nc3)nc12 + Cc1sc2c(c1C)C(c1ccc(Cl)cc1)=N[C@@H](CC(=O)OC(C)(C)C)c1nnc(C)n1-2 [NCGC00250412-19] | -434
CN1CCc2c(c3ccccc3n2Cc2ccc(C(=O)NO)cc2)C1 + Cc1sc2c(c1C)C(c1ccc(Cl)cc1)=N[C@@H](CC(=O)OC(C)(C)C)c1nnc(C)n1-2 [NCGC00250412-19] | 16
CS(=O)(=O)OCCCCOS(C)(=O)=O + Cc1sc2c(c1C)C(c1ccc(Cl)cc1)=N[C@@H](CC(=O)OC(C)(C)C)c1nnc(C)n1-2 [NCGC00250412-19] | -43.8
O=C(/C=C/c1ccc(O)cc1)c1ccc(O)cc1O + Cc1sc2c(c1C)C(c1ccc(Cl)cc1)=N[C@@H](CC(=O)OC(C)(C)C)c1nnc(C)n1-2 [NCGC00250412-19] | -121
CC(=O)N(C)c1cccc(-c2ccnc3c(C(=O)c4cccs4)cnn23)c1 + Cc1sc2c(c1C)C(c1ccc(Cl)cc1)=N[C@@H](CC(=O)OC(C)(C)C)c1nnc(C)n1-2 [NCGC00250412-19] | 23
C[C@H](NCc1ccc2c(c1)nc(NC(=O)c1ccc(-c3cn[nH]c3)s1)n2CCc1ccccc1)C(C)(C)C + Cc1sc2c(c1C)C(c1ccc(Cl)cc1)=N[C@@H](CC(=O)OC(C)(C)C)c1nnc(C)n1-2 [NCGC00250412-19] | -305
N#CCNC(=O)c1ccc(-c2ccnc(Nc3ccc(N4CCOCC4)cc3)n2)cc1 + Cc1sc2c(c1C)C(c1ccc(Cl)cc1)=N[C@@H](CC(=O)OC(C)(C)C)c1nnc(C)n1-2 [NCGC00250412-19] | 271
COCCNCCCn1c(C(=O)CF)c(-c2ccc(C)cc2)c2c(N)ncnc21 + Cc1sc2c(c1C)C(c1ccc(Cl)cc1)=N[C@@H](CC(=O)OC(C)(C)C)c1nnc(C)n1-2 [NCGC00250412-19] | 128
CC1(C)CC(O)CC(C)(C)N1[O] + Cc1sc2c(c1C)C(c1ccc(Cl)cc1)=N[C@@H](CC(=O)OC(C)(C)C)c1nnc(C)n1-2 [NCGC00250412-19] | -67.7
O=C(O)c1nc(=O)[nH]c(=O)[nH]1 + Cc1sc2c(c1C)C(c1ccc(Cl)cc1)=N[C@@H](CC(=O)OC(C)(C)C)c1nnc(C)n1-2 [NCGC00250412-19] | -48.1
CN(C)CCCN=c1c2ccccc2n(C)c2[nH]c(=O)n(C)c(=O)c12 + Cc1sc2c(c1C)C(c1ccc(Cl)cc1)=N[C@@H](CC(=O)OC(C)(C)C)c1nnc(C)n1-2 [NCGC00250412-19] | -34.1
NC(=O)Nc1cc(-c2ccc(CN3CCOCC3)cc2)sc1C(N)=O + Cc1sc2c(c1C)C(c1ccc(Cl)cc1)=N[C@@H](CC(=O)OC(C)(C)C)c1nnc(C)n1-2 [NCGC00250412-19] | -229
Cc1ncc(-c2ccnc(Nc3ccc(S(C)(=O)=O)cc3)n2)n1C(C)C + Cc1sc2c(c1C)C(c1ccc(Cl)cc1)=N[C@@H](CC(=O)OC(C)(C)C)c1nnc(C)n1-2 [NCGC00250412-19] | -28.3
COc1c(N2C[C@@H]3CCCN[C@@H]3C2)c(F)cc2c(=O)c(C(=O)O)cn(C3CC3)c12 + Cc1sc2c(c1C)C(c1ccc(Cl)cc1)=N[C@@H](CC(=O)OC(C)(C)C)c1nnc(C)n1-2 [NCGC00250412-19] | 41
CC1(C)CCC[C@]2(C)[C@H]3CC(=O)O[C@]3(C)CC[C@@H]12 + Cc1sc2c(c1C)C(c1ccc(Cl)cc1)=N[C@@H](CC(=O)OC(C)(C)C)c1nnc(C)n1-2 [NCGC00250412-19] | -54.6
COc1ncnc(NS(=O)(=O)c2ccc(N)cc2)c1OC + Cc1sc2c(c1C)C(c1ccc(Cl)cc1)=N[C@@H](CC(=O)OC(C)(C)C)c1nnc(C)n1-2 [NCGC00250412-19] | -98.9
Cc1ccccc1C(=O)c1ccc(Nc2ccc(Br)cc2N)cc1Cl + Cc1sc2c(c1C)C(c1ccc(Cl)cc1)=N[C@@H](CC(=O)OC(C)(C)C)c1nnc(C)n1-2 [NCGC00250412-19] | -45.5

Already shown: an excerpt of the list.
Compound | excess over highest single agent
O=C(O)c1nc(=O)[nH]c(=O)[nH]1 + Cc1sc2c(c1C)C(c1ccc(Cl)cc1)=N[C@@H](CC(=O)OC(C)(C)C)c1nnc(C)n1-2 [NCGC00250412-19] | -48.1
CN(C)CCCN=c1c2ccccc2n(C)c2[nH]c(=O)n(C)c(=O)c12 + Cc1sc2c(c1C)C(c1ccc(Cl)cc1)=N[C@@H](CC(=O)OC(C)(C)C)c1nnc(C)n1-2 [NCGC00250412-19] | -34.1
NC(=O)Nc1cc(-c2ccc(CN3CCOCC3)cc2)sc1C(N)=O + Cc1sc2c(c1C)C(c1ccc(Cl)cc1)=N[C@@H](CC(=O)OC(C)(C)C)c1nnc(C)n1-2 [NCGC00250412-19] | -229
